Measured values reported in patent publication US20150104448A1 (TRUE NORTH THERAPEUTICS, published 2015).

Tests used:
MASP1v1 = test: ELISA, target proteins immobilized on micro-titer plates
MASP1v2 = test: as above

binding (MASP1v1): no binding (tested: about 2e-7 M)
binding (MASP1v2): no binding (tested: about 2e-7 M)
B1: Anti-C1s monoclonal antibody IPN003 (antibody, V domains shown)
VH: EVMLVESGGALVKPGGSLKLSCAASGFTFSNYAMSWVRQIPEKRLEWVATISSGGSHTYYLDSVKGRFTISRDNARDTLYLQMSSLRSEDTALYYCARLFTGYAMDYWGQGTSVTVSS
VL: QIVLTQSPAIMSASLGERVTMTCTASSSVSSSYLHWYQQKPGSSPKLWIYSTSNLASGVPARFSGSGSGTFYSLTISSMEAEDDATYYCHQYYRLPPITFGAGTKLELK
notes: Mouse monoclonal antibody from an NZBW hybridoma; Biotin-labeled in some assays; also called IPN-M34; M34

No constants are given. Whether binding was seen depends on the method and setting.
